Test results reported in US6949349.
These are yes or no findings as the source states them, for the method shown.

T1: IGFBP-1 (human, UniProt P08833 26-259)
T1 construct: Biotinylated in the ELISA assays; also called rhIGFBP-1
T1 sequence (looked up): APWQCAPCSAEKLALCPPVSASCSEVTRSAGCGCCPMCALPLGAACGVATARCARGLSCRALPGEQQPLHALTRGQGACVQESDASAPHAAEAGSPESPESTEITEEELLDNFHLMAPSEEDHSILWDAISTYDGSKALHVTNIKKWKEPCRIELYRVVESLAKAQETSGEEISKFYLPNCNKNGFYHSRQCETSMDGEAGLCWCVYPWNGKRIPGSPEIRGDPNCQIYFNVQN


Target: T1, IGFBP-1
Experiment: ELISA competition, inhibition of IGFBP-1 binding to IGF-I

Binder | binding
CRAGPLQWLCE [bp1-04] | no binding (tested: IC50 (mut)/IC50 (wt) >1000)
CRAGPLQWLCEK [bp1-17] | no binding (tested: IC50 (mut)/IC50 (wt) >1000)
